Assay results as given in publication PMC5131891, “Structural Insights into Streptococcal Competence Regulation by the Cell-to-Cell Communication System ComRS” (PLoS Pathogens, 2016).

Target: ComR from Streptococcus thermophilus LMD-9 (ComR-StreptagII, wild type) (Streptococcus thermophilus LMD-9)
Experiment: crystal structure; ComR/XIP/DNA ternary complex: 175 μM ComR, 1 mM XIP, 175 μM 20-bp dsDNA (ComR-box of PcomX); 30% PEG 550 MME, 0.1 M MgCl2, 0.05 M Tris-HCl pH 8.5; 18°C; both purified

For LPYFAGCL [XIP octapeptide (ComS 17-24, LPYFAGCL) from Streptococcus thermophilus LMD-9], which binding is on record?
The binding was “binds”.

Results are given in words; binding and its absence hold for the method and conditions named. A result given as binding can be weak or reduced; the word gives no strength.
